PubChem BioAssay AID1259308 – NCATS, 2017

Test: 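Genes whose loss raises luciferase production in HEK293 cells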 (primary screen)
Cells: human HEK293 embryonic kidney cells stably expressing firefly luciferase (HEK-CMV-Luc2-Hygro)
Reagent: single siRNA against human genes, 0.8 pmol siRNA per well
Timing: 72 h
Read-out: 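Luciferase light (ONE-Glo) measured on one replicate plate set and viability (CellTiter-Glo) on the other, scaled to a negative control siRNA, with robust z-scores and luciferase per cell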
Reading the numbers: total luciferase, z-score and total luciferase, % of control: higher = more reporter protein produced
Active means: 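Active when the median/MAD z-score for overall luciferase is greater than 3; a gene was taken forward for validation with new siRNAs if at least two of its three siRNAs passed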
Meaning of the calls: active = raised luciferase; inactive = no rise
In all, the deposit lists about 59,000 reagents; shown is an unselected part. In the full data, about 1,510 (2.6%) got an active call. 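Calls use total luciferase alone and ignore viability, so some active siRNAs may act by altering cell number.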 Reagents against one gene are numbered here. Not all columns of the deposit are shown. No sequences are given here.

| Gene | reagent no. | total luciferase, z-score | total luciferase, % of control | Call |
| --- | --- | --- | --- | --- |
| CCDC106 | 1 | 0.347 | 88.8 | inactive |
| CCDC106 | 2 | -0.116 | 79.6 | inactive |
| CCDC106 | 3 | -0.357 | 74.8 | inactive |
| OR51B2 | 1 | -0.576 | 70.4 | inactive |
| OR51B2 | 2 | -1.21 | 57.8 | inactive |
| OR51B2 | 3 | 0.206 | 86 | inactive |
| GRB14 | 1 | 0.426 | 90.4 | inactive |
| GRB14 | 2 | 0.0927 | 83.7 | inactive |
| GRB14 | 3 | -0.625 | 69.4 | inactive |
| ASB9P1 | 1 | 2.23 | 126 | inactive |
| ASB9P1 | 2 | 0.674 | 95.3 | inactive |
| ASB9P1 | 3 | -1.72 | 47.7 | inactive |
| NME2 | 1 | -1.5 | 52 | inactive |
| NME2 | 2 | 0.62 | 94.2 | inactive |
| NME2 | 3 | 0.362 | 89.1 | inactive |
| CRLF3 | 1 | 0.558 | 93 | inactive |
| CRLF3 | 2 | 0.00664 | 82 | inactive |
| CRLF3 | 3 | -0.235 | 77.2 | inactive |
| HHIPL1 | 1 | 1.4 | 110 | inactive |
| HHIPL1 | 2 | 2.78 | 137 | inactive |
| HHIPL1 | 3 | -0.799 | 66 | inactive |
| PREX2 | 1 | 0.602 | 93.9 | inactive |
| PREX2 | 2 | 1.79 | 118 | inactive |
| PREX2 | 3 | -0.777 | 66.4 | inactive |
| FN3KRP | 1 | -0.239 | 77.1 | inactive |
| FN3KRP | 2 | -0.257 | 76.8 | inactive |
| FN3KRP | 3 | 0.844 | 98.7 | inactive |
| RTP3 | 1 | 1.53 | 112 | inactive |
| RTP3 | 2 | 0.0545 | 83 | inactive |
| RTP3 | 3 | -0.459 | 72.8 | inactive |
| NCDN | 1 | 2.49 | 131 | inactive |
| NCDN | 2 | 3.07 | 143 | active |
| NCDN | 3 | 0.45 | 90.8 | inactive |

Look-ups from above.
Result of OR51B2 #3 in “total luciferase, z-score”: 0.206
For “total luciferase, % of control”, CRLF3 #3 is entered as 77.2
Value for PREX2 #2 in “total luciferase, z-score”: 1.79
For “total luciferase, z-score”, NME2 #3 reads 0.362

The listing continues.
| Gene | reagent no. | total luciferase, z-score | total luciferase, % of control | Call |
| --- | --- | --- | --- | --- |
| FAM111B | 1 | 1.45 | 111 | inactive |
| FAM111B | 2 | -0.314 | 75.6 | inactive |
| FAM111B | 3 | -0.934 | 63.3 | inactive |
| CBS | 1 | -1.96 | 42.9 | inactive |
| CBS | 2 | -0.218 | 77.5 | inactive |
| CBS | 3 | -1.19 | 58.1 | inactive |
| REV1 | 1 | -0.319 | 75.5 | inactive |
| REV1 | 2 | -0.352 | 74.9 | inactive |
| REV1 | 3 | -0.199 | 77.9 | inactive |
| LCT | 1 | -0.375 | 74.4 | inactive |
| LCT | 2 | -1.72 | 47.6 | inactive |
| LCT | 3 | 0.0117 | 82.1 | inactive |
| ACAP1 | 1 | -0.126 | 79.4 | inactive |
| ACAP1 | 2 | -0.636 | 69.2 | inactive |
| ACAP1 | 3 | -0.138 | 79.1 | inactive |
| ROPN1B | 1 | -0.419 | 73.6 | inactive |
| ROPN1B | 2 | -0.332 | 75.3 | inactive |
| ROPN1B | 3 | 2.23 | 126 | inactive |
| SLC14A2 | 1 | 0.881 | 99.4 | inactive |
| SLC14A2 | 2 | -0.313 | 75.7 | inactive |
| SLC14A2 | 3 | 1.59 | 114 | inactive |
| TBC1D5 | 1 | 1.99 | 121 | inactive |
| TBC1D5 | 2 | 0.413 | 90.1 | inactive |
| TBC1D5 | 3 | 1.27 | 107 | inactive |
